“And” between values parts separate entries of the source, which are not always exact repeats. Equal entries are not always repeated. Among all 290,000 compounds or so, about 110 (0.038%) were called active. The inconclusive results got no clear call from the source; some entries with a clear call stand among them for comparison. Calls follow the shape of the dose curve; as a rule, active = well fitted inhibition curve with a large enough effect in the polarisation, with a control signal flat (not every such curve was filed as active); inconclusive = small, poorly fitted or top-dose-only effect, or effect the other way, or a change in a side signal; inactive = no such curve, though single readings can be large or run the other way; the % refers to the polarisation. A potency beside an inconclusive call is a rough fit, not a confirmed value. “Side channel” marks fits to a control or component signal instead of the main read-out.
These molecules were tested against Histone-lysine N-methyltransferase 2A (Homo sapiens) (UniProt Q03164) (assay: qHTS Fluorescence Polarization Assay for Inhibitors of MLL CXXC domain - DNA interaction). Details: MLL-CXXC / FITC-HOXA9 DNA fluorescence polarization; activity change, negative = inhibition: at 115 µM (top of the series).
In short: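 Purified MLL-CXXC (added from a 7 uM solution) was preincubated 5 min at ambient with pinned compounds in 50 mM Tris-HCl pH 7.5, 50 mM NaCl, 1 mM DTT, 0.05% BSA. Fluorescein-labeled HOX-A9 DNA (50 nM solution) followed, 30 min, then polarization read.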
Potency is read from the fitted curve at half-maximal effect.

Chains of the proteins cited; added tags and fusions are not shown.
UniProt Q03164, whole entry, looked up: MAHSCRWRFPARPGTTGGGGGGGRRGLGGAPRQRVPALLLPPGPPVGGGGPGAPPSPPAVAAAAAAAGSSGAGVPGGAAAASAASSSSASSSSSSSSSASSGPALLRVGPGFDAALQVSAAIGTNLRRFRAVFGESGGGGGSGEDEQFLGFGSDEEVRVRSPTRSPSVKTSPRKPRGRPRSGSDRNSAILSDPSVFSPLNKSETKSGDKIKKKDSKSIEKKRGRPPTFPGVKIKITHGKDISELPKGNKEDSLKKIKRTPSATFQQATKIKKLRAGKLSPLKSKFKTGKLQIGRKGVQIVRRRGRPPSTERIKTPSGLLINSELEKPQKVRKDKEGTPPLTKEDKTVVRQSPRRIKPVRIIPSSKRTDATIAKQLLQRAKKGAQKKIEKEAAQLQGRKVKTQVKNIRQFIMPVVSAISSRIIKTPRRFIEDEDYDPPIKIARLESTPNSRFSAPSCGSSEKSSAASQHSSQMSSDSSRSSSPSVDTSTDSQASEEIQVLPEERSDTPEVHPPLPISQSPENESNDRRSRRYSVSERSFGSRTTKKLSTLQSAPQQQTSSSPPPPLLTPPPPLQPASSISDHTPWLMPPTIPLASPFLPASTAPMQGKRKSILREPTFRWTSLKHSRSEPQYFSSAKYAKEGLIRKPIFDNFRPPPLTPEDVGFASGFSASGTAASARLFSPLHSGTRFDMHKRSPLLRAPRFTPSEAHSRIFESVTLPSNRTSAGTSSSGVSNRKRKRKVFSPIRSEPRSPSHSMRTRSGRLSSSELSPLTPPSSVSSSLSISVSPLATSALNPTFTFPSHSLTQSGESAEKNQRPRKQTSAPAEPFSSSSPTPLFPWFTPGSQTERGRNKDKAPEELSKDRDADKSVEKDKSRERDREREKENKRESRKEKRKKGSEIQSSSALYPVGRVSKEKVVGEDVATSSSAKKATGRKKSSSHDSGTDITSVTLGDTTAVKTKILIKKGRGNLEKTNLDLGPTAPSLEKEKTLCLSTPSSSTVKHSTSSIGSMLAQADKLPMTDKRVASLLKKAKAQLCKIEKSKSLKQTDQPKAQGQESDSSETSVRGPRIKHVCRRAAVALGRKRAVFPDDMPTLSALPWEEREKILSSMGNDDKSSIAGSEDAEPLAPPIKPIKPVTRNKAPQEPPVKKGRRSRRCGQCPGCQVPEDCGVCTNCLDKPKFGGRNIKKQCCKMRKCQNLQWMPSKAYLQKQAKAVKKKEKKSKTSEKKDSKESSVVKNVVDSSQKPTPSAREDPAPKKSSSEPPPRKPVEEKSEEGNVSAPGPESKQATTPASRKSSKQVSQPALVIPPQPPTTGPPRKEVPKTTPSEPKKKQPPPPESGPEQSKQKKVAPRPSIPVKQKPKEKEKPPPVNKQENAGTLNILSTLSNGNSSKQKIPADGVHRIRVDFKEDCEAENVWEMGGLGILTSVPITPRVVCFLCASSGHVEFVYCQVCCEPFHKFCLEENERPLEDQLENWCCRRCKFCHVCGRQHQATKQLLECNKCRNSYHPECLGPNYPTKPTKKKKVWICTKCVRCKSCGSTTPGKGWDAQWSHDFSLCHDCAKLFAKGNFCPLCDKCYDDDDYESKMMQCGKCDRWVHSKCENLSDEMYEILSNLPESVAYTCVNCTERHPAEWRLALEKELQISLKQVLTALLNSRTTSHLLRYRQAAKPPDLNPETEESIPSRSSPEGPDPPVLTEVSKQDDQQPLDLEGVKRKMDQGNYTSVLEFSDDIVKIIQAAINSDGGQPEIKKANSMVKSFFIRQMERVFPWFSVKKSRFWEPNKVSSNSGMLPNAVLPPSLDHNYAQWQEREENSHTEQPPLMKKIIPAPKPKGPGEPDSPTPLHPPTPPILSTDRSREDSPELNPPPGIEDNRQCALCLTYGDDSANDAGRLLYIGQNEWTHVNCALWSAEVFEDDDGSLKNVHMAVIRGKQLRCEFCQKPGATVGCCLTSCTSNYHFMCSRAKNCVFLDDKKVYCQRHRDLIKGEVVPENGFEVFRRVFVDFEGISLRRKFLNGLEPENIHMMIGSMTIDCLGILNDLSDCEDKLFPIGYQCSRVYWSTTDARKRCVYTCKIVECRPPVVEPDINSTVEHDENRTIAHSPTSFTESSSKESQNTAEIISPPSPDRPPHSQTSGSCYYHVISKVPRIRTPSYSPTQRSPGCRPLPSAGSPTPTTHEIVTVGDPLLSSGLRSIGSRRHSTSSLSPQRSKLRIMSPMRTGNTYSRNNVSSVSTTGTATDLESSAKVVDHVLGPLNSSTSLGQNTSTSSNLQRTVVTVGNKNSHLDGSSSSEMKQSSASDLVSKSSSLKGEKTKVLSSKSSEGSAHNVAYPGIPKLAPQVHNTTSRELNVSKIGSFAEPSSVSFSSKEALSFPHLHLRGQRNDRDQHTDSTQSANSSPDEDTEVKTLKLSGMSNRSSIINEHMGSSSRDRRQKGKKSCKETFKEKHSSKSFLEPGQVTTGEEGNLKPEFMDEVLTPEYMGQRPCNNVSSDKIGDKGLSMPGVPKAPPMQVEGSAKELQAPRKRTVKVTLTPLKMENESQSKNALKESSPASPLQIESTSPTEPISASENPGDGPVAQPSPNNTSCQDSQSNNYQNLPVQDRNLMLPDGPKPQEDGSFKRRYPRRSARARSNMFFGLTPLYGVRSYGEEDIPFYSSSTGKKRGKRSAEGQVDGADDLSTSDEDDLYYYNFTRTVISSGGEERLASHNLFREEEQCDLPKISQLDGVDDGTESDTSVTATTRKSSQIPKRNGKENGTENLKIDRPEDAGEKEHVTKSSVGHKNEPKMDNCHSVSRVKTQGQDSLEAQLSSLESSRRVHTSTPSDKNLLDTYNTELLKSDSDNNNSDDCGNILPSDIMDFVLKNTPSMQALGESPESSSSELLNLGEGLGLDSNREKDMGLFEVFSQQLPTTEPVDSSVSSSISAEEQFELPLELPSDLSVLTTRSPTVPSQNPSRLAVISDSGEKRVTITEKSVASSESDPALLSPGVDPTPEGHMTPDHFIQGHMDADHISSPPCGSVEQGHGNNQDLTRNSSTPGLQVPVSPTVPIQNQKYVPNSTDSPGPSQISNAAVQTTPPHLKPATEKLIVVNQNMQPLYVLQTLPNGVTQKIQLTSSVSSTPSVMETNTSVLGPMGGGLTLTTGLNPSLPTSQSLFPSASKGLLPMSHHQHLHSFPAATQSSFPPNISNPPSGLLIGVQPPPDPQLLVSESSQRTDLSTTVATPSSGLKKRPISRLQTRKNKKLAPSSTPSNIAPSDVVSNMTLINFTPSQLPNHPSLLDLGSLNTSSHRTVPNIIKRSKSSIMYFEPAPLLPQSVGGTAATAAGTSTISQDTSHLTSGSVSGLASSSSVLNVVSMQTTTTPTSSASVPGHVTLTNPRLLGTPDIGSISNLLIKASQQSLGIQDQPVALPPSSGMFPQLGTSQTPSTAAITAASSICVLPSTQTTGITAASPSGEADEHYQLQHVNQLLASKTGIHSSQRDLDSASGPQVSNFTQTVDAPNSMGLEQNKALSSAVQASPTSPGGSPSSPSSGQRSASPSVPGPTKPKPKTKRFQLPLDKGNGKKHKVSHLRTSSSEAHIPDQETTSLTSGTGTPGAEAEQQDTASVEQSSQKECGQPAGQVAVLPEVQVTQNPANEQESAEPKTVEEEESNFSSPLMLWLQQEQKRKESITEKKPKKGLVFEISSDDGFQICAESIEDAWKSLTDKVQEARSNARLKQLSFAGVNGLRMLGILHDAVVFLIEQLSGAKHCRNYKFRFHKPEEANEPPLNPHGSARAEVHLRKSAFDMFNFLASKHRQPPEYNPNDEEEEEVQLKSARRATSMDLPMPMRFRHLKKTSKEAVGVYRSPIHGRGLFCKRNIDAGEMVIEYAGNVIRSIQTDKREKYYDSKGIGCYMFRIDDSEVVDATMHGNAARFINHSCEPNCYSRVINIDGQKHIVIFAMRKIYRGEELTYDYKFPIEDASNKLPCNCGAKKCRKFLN

Row | Compound | Potency | activity change, negative = inhibition
1 | CC(=O)Nc1ccc(/C=C(\C#N)C(=O)NC2CCCCC2)cc1 | inconclusive: 35.5 µM [fluorescent, side channel, partial curve] | 
2 | Cc1cc(NC(=O)Cc2ccccc2)nc2c1c(=O)oc1ccccc12 | inconclusive: 15.8 µM [fluorescent, side channel, single point] | 
3 | O=C(COc1ccc(Br)cc1)NCCCNC(=O)c1cccnc1 | inconclusive: 11.2 µM [fluorescent, side channel, single point] | 
4 | CC(=O)[C@]1(O)Cc2c(O)c3c(c(O)c2[C@@H](O[C@H]2C[C@H](N)[C@H](O)[C@H](C)O2)C1)C(=O)c1ccccc1C3=O | inconclusive: 20 µM [fluorescent, side channel, partial curve] and inconclusive: 39.8 µM [fluorescent, side channel, full curve] | 
5 | Cc1ccc(NC(=S)C2=C(O)c3sccc3N(C)S2(=O)=O)cc1 | inconclusive: 25.1 µM [fluorescent, side channel, partial curve, poor fit] | 
6 | O=C(O)C(Oc1ccc2cc(-c3ccc(Cl)cc3)c(=O)oc2c1)c1ccccc1 (stereo not drawn) | inconclusive: 17.8 µM [inhibitor, partial curve, poor fit] | 
7 | N#Cc1c(-c2ccco2)cc(-c2ccc(F)cc2)nc1N | inactive | 
8 | O=C(COc1ccc(Cl)cc1)Nc1ccc2c(c1)OCO2 | inactive | 
9 | COc1cc([N+](=O)[O-])ccc1NC(=O)C[n+]1ccccc1 | inconclusive: 39.8 µM [quencher, side channel, single point] | 
10 | COc1ccc(C(=O)Nc2ccccc2C(=O)NCC2CCCO2)cc1 (stereo not drawn) | inconclusive: 14.1 µM [fluorescent, side channel, single point] | 
11 | Cc1cc(=O)oc2cc(NC(=S)NCc3cccnc3)ccc12 |  | inconclusive: -12% [phenotype inactive]
12 | COc1cc2c(cc1OC)-c1cc(Nc3ccc4c(c3)OCCO4)nc(=O)n1CC2 | inconclusive: 35.5 µM [quencher, side channel, single point] | 
13 | Cc1c(N=C2C=CC(=O)c3ccccc32)c(=O)n(-c2ccccc2)n1C | inconclusive: 31.6 µM [quencher, side channel, partial curve] | 
14 | Cc1cccc(/C=N/NC(=O)CN2CCCCCCC2)c1 | inactive | 
15 | CC(=O)N1C(=O)C(=C2C=C(C)OC(C)=C2)c2ccccc21 | inconclusive: 39.8 µM [fluorescent, side channel, partial curve] | 
16 | COc1ccc(N=Cc2oc3ccc4ccccc4c3c2O)cc1 | inconclusive: 7.94 µM [fluorescent, side channel, full curve] | 
17 | Cc1ccc(NC(=O)CCNC(=O)Cn2ccc3ccccc3c2=O)cc1F | inactive | 
18 | O=C(Nc1cccc(-c2cccc(Cl)c2)c1)C1CCN(C2CCC2)CC1 | inconclusive: 35.5 µM [quencher, side channel, single point] | 
19 | CCCN1CCC(=NNc2ccc(S(=O)(=O)N3CCOCC3)cc2[N+](=O)[O-])CC1 | inconclusive: 14.1 µM [fluorescent, side channel, single point] | 
20 | Cc1ccc(C)c(C(C)NC(=O)Cc2cccs2)c1 (stereo not drawn) | inconclusive: 70.8 µM [fluorescent, side channel, single point] | 
21 | CN1CCC(=O)N([C@H](CSc2ccc(Br)cc2)c2ccccc2)CC1 | inactive | 

Two entries from above, tab-delimited:
Row	Compound	Potency	activity change, negative = inhibition
16	COc1ccc(N=Cc2oc3ccc4ccccc4c3c2O)cc1	inconclusive: 7.94 µM [fluorescent, side channel, full curve]	
17	Cc1ccc(NC(=O)CCNC(=O)Cn2ccc3ccccc3c2=O)cc1F	inactive	

Carrying on.

Row | Compound | Potency | activity change, negative = inhibition
22 | COc1ccccc1COn1c(=O)c(-c2ccco2)[n+]([O-])c2ccccc21 | inconclusive: 31.6 µM [fluorescent, side channel, partial curve] | 
23 | Cc1ccc(C(C)C)c(OCc2nn(CC(=O)c3ccc(Cl)cc3)c3[n+]2CCCCC3)c1 | inactive | 
24 | CN1CCN(NC(=S)Nc2ccc(OC(F)F)cc2)CC1 | inconclusive: 12.6 µM [fluorescent, side channel, single point] | 
25 | COCCNC(=S)N/N=C/c1ccc(N2CCOCC2)cc1 | inconclusive: 31.6 µM [fluorescent, side channel, single point] | 
26 | CC1(C)CC(=O)c2sc(NC(=O)CCS(=O)(=O)c3ccccc3)nc2C1 | inactive | 
27 | O=C(O)CN1C(=O)/C(=C/c2ccsc2)SC1=S | inconclusive: 35.5 µM [fluorescent, side channel, partial curve] | 
28 | CN(CC(=O)Nc1ccc(Cl)cc1)C(=O)CCC1CCCC1 | inconclusive: 11.2 µM [quencher, side channel, single point] | 
29 | COc1ccc(CC(=O)N/N=C(/C)c2ccco2)cc1 | inconclusive: 11.2 µM [inhibitor, partial curve] | 
30 | O=[N+]([O-])c1ccc(NCCNCCOc2nonc2-c2ccccc2)c([N+](=O)[O-])c1 | inactive | 
31 | CC1CCN(Cc2cc(=O)oc3ccc(C(C)C)cc23)CC1 | inactive | 
32 | CN1CCCN(C(=O)c2ccc(Cl)cc2)CC1 | inconclusive: 35.5 µM [fluorescent, side channel, single point] | 
33 | CCOC(=O)c1c(NC(=O)c2cc3n(n2)C(C(F)(F)F)CC(c2cccs2)N3)sc(C)c1C (stereo not drawn) | inactive | 
34 | N#Cc1c(N)nc2c(c1-c1cccs1)CCCC2 | inactive | 
35 | COC(=O)c1ccc(C2NC(=O)c3ccccc3O2)cc1 (stereo not drawn) | inconclusive: 8.91 µM [inhibitor, single point] | 
36 | O=C1C=C(NCc2ccccc2)c2ccccc2C1=O | inconclusive: 70.8 µM [inhibitor, single point] | 
37 | OCCCCCN=c1cc(-c2ccccc2)oc2ccc(Cl)cc12 | inconclusive: 35.5 µM [quencher, side channel, single point] | 
38 | CCC(=O)Oc1ccc2c(c1)O/C(=C\c1ccco1)C2=O | inconclusive: 39.8 µM [fluorescent, side channel, partial curve] | 
39 | Fc1cccc(C[n+]2csc3ccccc32)c1 | inconclusive: 44.7 µM [inhibitor, single point] | 
40 | CCOC(=O)c1c(/N=C/c2cc(C)ccc2O)sc2c1CCN(C)C2 | inconclusive: 31.6 µM [quencher, side channel, single point] | 
41 | COc1ccc2[nH]c(=O)c(C(c3nnnn3C3CCCC3)N3CCN(Cc4ccc5c(c4)OCO5)CC3)cc2c1 (stereo not drawn) | inactive | 
42 | CCN(CC)S(=O)(=O)c1ccc(N2CCOCC2)c(NS(=O)(=O)c2cc(C(C)(C)C)ccc2C)c1 | inconclusive: 14.1 µM [inhibitor, single point] | 

Row | Compound | Potency | activity change, negative = inhibition
43 | CCCCNC(=S)Nc1ccc2nc(N3CCN(CC)CC3)cc(C)c2c1 | inconclusive: 44.7 µM [inhibitor, single point] | 
44 | Cc1cc(C)c2c(CC(=O)NNC(=O)c3ccccc3)coc2c1 | inconclusive: 89.1 µM [quencher, side channel, single point] | 
45 | O=C(CCC(=O)Nc1ccccc1)N/N=C/c1ccncc1 | inconclusive: 17.8 µM [inhibitor, partial curve] | 
46 | O=C(CCc1nnc2ccc(N3CCCC3)nn12)Nc1cc(F)ccc1F | inconclusive: 14.1 µM [quencher, side channel, single point] | 
47 | Cc1c(-c2ccncc2)oc2ccc(Br)cc2c1=O | inconclusive: 89.1 µM [inhibitor, single point] | 
48 | COc1ccc(OC)c(CN2CCN(C(=O)c3cc4ccccc4cc3O)CC2)c1 | inconclusive: 5.62 µM [fluorescent, side channel, single point] | 
49 | CCN(CC)c1ccc(C2Nc3cccc4cccc(c34)N2)cc1 | inconclusive: 31.6 µM [quencher, side channel, partial curve] | 
50 | O=C(NNc1cccc(Cl)n1)c1c(F)cccc1F | inactive | 
51 | CCCCCCc1cc2cc(-c3nnc(-c4ccccc4OC)o3)c(=O)oc2cc1O | inconclusive: 25.1 µM [fluorescent, side channel, partial curve, poor fit] | 
52 | CC(C)(O)C(=O)N=Nc1c(O)[nH]c2ccccc12 | inconclusive: 31.6 µM [quencher, side channel, single point] | 
53 | O=C(c1ccccc1NS(=O)(=O)c1ccc(F)cc1)N1CCOCC1 | inconclusive: 15.8 µM [quencher, side channel, single point] | 
54 | COc1ccc(NC(=O)c2cc(-c3ccc(C)cc3)on2)cc1OC | inactive | 
55 | CCCC(=O)N1CCN(c2ccc(NC(=O)c3ccc([N+](=O)[O-])o3)cc2Cl)CC1 | inactive | 
56 | Cc1ccc(C)c(C(C)NC(=O)c2ccc(Br)o2)c1 (stereo not drawn) | inconclusive: 31.6 µM [fluorescent, side channel, partial curve] | 
57 | O=C(Nc1ccc(C2=NCCN2)cc1)c1ccc(C(=O)Nc2ccc(C3=NCCN3)cc2)c(Cl)c1 | inconclusive: 39.8 µM [quencher, side channel, partial curve] | 
58 | CCCC(=O)N1CCN(c2nnc(-c3ccc(C)cc3)c3ccccc23)CC1 | inconclusive: 28.2 µM [quencher, side channel, partial curve] | 
59 | NC(=S)NNC(=O)Nc1ccc(Cl)c(Cl)c1 | inactive | 
60 | CC(=O)NC(c1ccc(C)cc1)c1cc(Cl)c2cccnc2c1O (stereo not drawn) | inactive | 
61 | COc1ccc(/C=C2\SC(N3CCCCC3)=NC2=O)cc1 | inactive | 
62 | O=C(O)C(O)c1ccccc1 (stereo not drawn) | inactive | 
63 | CC(C)c1ccc(NC2CCCN(C(=O)c3ccncc3)C2)cc1 (stereo not drawn) | inconclusive: 39.8 µM [fluorescent, side channel, partial curve] | 

Another view of 3 compounds above:
CC1(C)CC(=O)c2sc(NC(=O)CCS(=O)(=O)c3ccccc3)nc2C1
  Potency: inactive
CCC(=O)Oc1ccc2c(c1)O/C(=C\c1ccco1)C2=O
  Potency: inconclusive: 39.8 µM [fluorescent, side channel, partial curve]
CCOC(=O)c1c(/N=C/c2cc(C)ccc2O)sc2c1CCN(C)C2
  Potency: inconclusive: 31.6 µM [quencher, side channel, single point]

Source: PubChem BioAssay AID2662 (National Center for Advancing Translational Sciences (NCATS), 2010)
